Reference: paper PMC9636801
No constants are given. Whether binding was seen depends on the method and setting. Binding seen in cells or lysates may run through a third protein. Some binding calls cover weakened binding; strength is not graded here.

T1: receptor-interacting protein 1 (mouse (endogenous in primary microglia)), Q60855
T1 chain: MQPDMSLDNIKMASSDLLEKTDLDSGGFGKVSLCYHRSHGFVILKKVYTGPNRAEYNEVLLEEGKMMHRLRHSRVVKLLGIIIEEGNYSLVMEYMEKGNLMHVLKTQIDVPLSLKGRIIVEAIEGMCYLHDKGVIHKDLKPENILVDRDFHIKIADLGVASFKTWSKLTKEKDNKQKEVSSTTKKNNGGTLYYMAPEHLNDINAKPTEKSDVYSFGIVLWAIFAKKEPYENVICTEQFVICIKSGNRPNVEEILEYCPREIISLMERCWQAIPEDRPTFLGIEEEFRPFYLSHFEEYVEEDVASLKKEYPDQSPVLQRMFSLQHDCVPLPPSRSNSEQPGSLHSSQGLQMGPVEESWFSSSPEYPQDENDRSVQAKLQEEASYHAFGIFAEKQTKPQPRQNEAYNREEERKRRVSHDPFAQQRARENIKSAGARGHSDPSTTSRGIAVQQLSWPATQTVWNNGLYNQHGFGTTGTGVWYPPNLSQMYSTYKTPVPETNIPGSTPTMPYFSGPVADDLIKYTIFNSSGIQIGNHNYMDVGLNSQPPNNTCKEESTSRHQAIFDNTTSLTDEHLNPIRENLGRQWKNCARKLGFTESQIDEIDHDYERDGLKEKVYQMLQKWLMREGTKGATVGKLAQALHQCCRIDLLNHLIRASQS


Legend:
[1] = target: T1, receptor-interacting protein 1 (mouse …); experiment: co-IP; endogenous proteins in lysates of primary microglial cells (weak RIPA lysis buffer); IP with anti-RIPK1 or anti-RIPK3 antibody overnight at 4 °C, protein A/G agarose, immunoblot; cells untreated, treated with 100 μm glutamate for 24 h, or glutamate plus Fetuin-A; conditions: remark: other sources report otherwise
[2] = target: receptor-interacting protein 3 (mouse (endogenous in primary microglia)), Q9QZL0; experiment: as above; conditions: remark: other sources report otherwise

Binder	binding [1]	binding [2]
receptor-interacting protein 3, Q9QZL0 1-486 (protein) MSSVKLWPTGASAVPLVSREELKKLEFVGKGGFGVVFRAHHRTWNHDVAVKIVNSKKISWEVKAMVNLRNENVLLLLGVTEDLQWDFVSGQALVTRFMENGSLAGLLQPECPRPWPLLCRLLQEVVLGMCYLHSLNPPLLHRDLKPSNILLDPELHAKLADFGLSTFQGGSQSGSGSGSGSRDSGGTLAYLDPELLFDVNLKASKASDVYSFGILVWAVLAGREAELVDKTSLIRETVCDRQSRPPLTELPPGSPETPGLEKLKELMIHCWGSQSENRPSFQDCEPKTNEVYNLVKDKVDAAVSEVKHYLSQHRSSGRNLSAREPSQRGTEMDCPRETMVSKMLDRLHLEEPSGPVPGKCPERQAQDTSVGPATPARTSSDPVAGTPQIPHTLPFRGTTPGPVFTETPGPHPQRNQGDGRHGTPWYPWTPPNPMTGPPALVFNNCSEVQIGNYNSLVAPPRTTASSSAKYDQAQFGRGRGWQPFHK	binds	
receptor-interacting protein 1, Q60855 1-656 (protein) MQPDMSLDNIKMASSDLLEKTDLDSGGFGKVSLCYHRSHGFVILKKVYTGPNRAEYNEVLLEEGKMMHRLRHSRVVKLLGIIIEEGNYSLVMEYMEKGNLMHVLKTQIDVPLSLKGRIIVEAIEGMCYLHDKGVIHKDLKPENILVDRDFHIKIADLGVASFKTWSKLTKEKDNKQKEVSSTTKKNNGGTLYYMAPEHLNDINAKPTEKSDVYSFGIVLWAIFAKKEPYENVICTEQFVICIKSGNRPNVEEILEYCPREIISLMERCWQAIPEDRPTFLGIEEEFRPFYLSHFEEYVEEDVASLKKEYPDQSPVLQRMFSLQHDCVPLPPSRSNSEQPGSLHSSQGLQMGPVEESWFSSSPEYPQDENDRSVQAKLQEEASYHAFGIFAEKQTKPQPRQNEAYNREEERKRRVSHDPFAQQRARENIKSAGARGHSDPSTTSRGIAVQQLSWPATQTVWNNGLYNQHGFGTTGTGVWYPPNLSQMYSTYKTPVPETNIPGSTPTMPYFSGPVADDLIKYTIFNSSGIQIGNHNYMDVGLNSQPPNNTCKEESTSRHQAIFDNTTSLTDEHLNPIRENLGRQWKNCARKLGFTESQIDEIDHDYERDGLKEKVYQMLQKWLMREGTKGATVGKLAQALHQCCRIDLLNHLIRASQS		binds
